Assay results taken from PMC4922663.
Results are given in words; binding and its absence hold for the method and conditions named. In cells and extracts the contact can be indirect. Some results given as binding are weak or reduced against the parent protein; the word gives no strength.

By UniProt entry, the sequences of proteins in these tests, tags left out.
UniProt O60260: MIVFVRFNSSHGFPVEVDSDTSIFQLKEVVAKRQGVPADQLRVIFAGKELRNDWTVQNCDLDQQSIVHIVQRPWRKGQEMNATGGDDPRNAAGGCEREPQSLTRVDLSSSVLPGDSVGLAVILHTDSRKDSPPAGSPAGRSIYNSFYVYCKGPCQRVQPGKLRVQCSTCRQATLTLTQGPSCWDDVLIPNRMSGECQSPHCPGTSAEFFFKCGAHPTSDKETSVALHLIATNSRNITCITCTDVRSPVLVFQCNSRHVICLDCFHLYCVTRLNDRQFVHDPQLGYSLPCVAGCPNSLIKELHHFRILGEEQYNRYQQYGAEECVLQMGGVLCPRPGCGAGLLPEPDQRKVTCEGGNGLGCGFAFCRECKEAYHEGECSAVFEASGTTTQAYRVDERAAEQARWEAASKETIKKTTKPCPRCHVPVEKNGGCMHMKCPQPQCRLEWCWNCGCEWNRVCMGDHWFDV
UniProt Q96EP0: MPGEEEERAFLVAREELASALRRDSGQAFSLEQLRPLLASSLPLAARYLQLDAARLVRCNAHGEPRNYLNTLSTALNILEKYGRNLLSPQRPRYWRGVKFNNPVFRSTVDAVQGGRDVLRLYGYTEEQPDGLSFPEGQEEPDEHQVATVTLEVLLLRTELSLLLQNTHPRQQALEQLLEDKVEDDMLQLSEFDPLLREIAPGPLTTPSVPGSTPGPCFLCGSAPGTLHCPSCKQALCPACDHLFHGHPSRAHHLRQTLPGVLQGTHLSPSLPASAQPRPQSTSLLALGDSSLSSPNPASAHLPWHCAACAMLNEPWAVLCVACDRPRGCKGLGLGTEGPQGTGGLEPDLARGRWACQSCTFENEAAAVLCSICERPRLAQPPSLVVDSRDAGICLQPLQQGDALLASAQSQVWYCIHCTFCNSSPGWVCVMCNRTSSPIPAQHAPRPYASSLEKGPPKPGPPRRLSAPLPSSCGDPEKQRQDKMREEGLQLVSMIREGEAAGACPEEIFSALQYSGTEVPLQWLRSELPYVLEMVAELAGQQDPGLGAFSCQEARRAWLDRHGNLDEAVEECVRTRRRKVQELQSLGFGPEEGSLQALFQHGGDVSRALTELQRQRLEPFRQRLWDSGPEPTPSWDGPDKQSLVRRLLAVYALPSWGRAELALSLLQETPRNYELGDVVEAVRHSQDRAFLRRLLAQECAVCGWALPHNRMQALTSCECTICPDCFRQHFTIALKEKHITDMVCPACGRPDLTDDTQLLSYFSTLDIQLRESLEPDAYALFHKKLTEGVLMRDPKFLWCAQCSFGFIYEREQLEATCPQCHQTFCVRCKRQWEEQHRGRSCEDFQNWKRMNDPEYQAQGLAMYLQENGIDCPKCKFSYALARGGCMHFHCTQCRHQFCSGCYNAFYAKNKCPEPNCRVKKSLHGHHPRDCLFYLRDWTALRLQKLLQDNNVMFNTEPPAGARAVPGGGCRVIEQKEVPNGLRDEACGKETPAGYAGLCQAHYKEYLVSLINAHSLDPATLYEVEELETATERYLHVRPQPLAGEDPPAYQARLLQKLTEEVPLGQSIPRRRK
UniProt Q7Z434: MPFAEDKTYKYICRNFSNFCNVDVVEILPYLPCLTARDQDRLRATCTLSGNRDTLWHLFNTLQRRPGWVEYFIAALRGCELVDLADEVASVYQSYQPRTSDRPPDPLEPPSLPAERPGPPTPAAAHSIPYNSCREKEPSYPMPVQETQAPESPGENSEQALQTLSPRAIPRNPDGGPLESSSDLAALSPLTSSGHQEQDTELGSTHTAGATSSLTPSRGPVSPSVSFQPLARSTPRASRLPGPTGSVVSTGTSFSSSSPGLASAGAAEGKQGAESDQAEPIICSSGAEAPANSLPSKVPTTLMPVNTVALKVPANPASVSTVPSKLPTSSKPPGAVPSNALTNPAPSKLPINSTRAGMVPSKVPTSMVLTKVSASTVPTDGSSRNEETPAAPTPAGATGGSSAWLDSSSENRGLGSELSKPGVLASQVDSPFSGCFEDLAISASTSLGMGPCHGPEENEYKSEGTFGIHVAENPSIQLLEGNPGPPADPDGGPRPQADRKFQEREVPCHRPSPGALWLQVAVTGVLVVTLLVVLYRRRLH

How the values were obtained:
Test in all cases: co-IP
HA-Parkin = HA-Parkin (UniProt O60260)
FLAG-HOIP = FLAG-HOIP (UniProt Q96EP0)
[1] = target: mitochondrial antiviral signaling protein (MAVS) (human (endogenous in HepAD38, Huh7 and HBx expressing cells)) (UniProt Q7Z434)
[2] = target: Parkin (human (endogenous in HepAD38 and Huh7)) (UniProt O60260)

Substance: MAVS-FLAG (from UniProt Q7Z434 1-540)
- binding (HA-Parkin): binds

Substance: Parkin (from UniProt O60260 1-465)
- binding (FLAG-HOIP): binds
- binding [1]: binds

Substance: mitochondrial antiviral signaling protein (MAVS) (from UniProt Q7Z434 1-540)
- binding [2]: binds
